The source of these data is article doi:10.1101/2020.12.28.424526 (bioRxiv, 2020).

Results are given in words; binding and its absence hold for the method and conditions named. Binding seen in cells or lysates may run through a third protein. Binding can be weak; no strength is given.

The assay addresses T1, 5'-3' exoribonuclease-2 (XRN-2) (C. elegans (endogenous in worm lysate)) (UniProt Q9U299).
T1 sequence: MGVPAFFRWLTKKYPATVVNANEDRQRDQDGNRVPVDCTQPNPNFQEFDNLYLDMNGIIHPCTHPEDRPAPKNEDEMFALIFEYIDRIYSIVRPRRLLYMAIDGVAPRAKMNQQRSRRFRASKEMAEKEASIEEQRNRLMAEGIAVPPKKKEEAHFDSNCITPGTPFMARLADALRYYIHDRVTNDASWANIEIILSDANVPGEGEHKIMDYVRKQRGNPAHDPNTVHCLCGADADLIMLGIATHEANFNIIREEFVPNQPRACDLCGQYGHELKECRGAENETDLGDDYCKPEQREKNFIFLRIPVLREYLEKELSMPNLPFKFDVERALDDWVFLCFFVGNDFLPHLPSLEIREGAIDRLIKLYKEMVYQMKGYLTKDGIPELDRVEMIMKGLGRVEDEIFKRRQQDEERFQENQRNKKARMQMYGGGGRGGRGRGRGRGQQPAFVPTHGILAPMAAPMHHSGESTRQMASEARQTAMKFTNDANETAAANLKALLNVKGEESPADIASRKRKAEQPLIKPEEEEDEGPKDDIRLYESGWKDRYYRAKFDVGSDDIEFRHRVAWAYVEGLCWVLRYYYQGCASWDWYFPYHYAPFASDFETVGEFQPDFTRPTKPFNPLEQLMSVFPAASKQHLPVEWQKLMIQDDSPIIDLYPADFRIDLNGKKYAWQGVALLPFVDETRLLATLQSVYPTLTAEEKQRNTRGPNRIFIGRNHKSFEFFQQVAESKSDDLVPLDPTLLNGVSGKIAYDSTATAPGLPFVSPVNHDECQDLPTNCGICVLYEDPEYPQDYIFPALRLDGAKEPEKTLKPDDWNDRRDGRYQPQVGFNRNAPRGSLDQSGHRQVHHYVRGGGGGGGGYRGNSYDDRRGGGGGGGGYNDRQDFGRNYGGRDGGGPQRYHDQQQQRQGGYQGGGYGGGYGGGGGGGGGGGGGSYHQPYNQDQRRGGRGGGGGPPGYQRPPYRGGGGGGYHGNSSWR
In words: co-IP.

Turning to “miRNasome-1.4 (B0024.11) (C. elegans (endogenous in worm lysate))”, the binding entry was “binds”.
With “NOL-58 (C. elegans (endogenous in worm lysate))”, the binding entry was “binds”.
